These results are taken from patent US20160207996A1 (ARGEN X N V, published 2016).

The chains behind the UniProt entries cited, without tags or fusion partners. Where a name states a change or a piece, a line headed by the entry shows the natural chain unless it says otherwise. Residues count along the entry.
UniProt P47871: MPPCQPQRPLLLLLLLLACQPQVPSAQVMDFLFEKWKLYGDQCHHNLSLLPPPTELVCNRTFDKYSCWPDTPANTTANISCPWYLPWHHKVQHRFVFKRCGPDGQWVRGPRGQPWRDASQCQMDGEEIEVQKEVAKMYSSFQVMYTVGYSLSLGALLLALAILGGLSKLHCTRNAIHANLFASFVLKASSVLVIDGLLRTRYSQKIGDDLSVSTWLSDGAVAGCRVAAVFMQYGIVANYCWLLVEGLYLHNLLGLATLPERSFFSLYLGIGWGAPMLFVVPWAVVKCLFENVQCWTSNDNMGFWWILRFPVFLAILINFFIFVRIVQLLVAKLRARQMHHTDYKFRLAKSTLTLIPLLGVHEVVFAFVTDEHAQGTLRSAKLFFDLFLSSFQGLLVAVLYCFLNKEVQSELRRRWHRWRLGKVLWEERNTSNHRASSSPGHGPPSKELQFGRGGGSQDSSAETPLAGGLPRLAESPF
glucagon receptor (GCGR), full length: residues 26-477 of P47871

Assay [1] has as its target glucagon receptor (GCGR), full length (human) (UniProt P47871). The assay is described as follows: flow cytometry on HEK293E-GCGR cells. (A flow cytometer gives signals particle by particle.)
Assay [2] addresses T1, Nt-GCGR-hFc (human, UniProt P47871 26-136).
T1 construct: domain: N-terminal domain; also called Nt-GCGR-Fc; recombinant N-terminal domain of GCGR; not shown: hFc
Nature of the assay: mAb binding ELISA on coated Nt-GCGR-hFc, mAb 1 µg/ml. In general terms: An ELISA detects its analyte on a solid surface through an enzyme-linked reagent.

In assay [3] the target is glucagon receptor (GCGR), full length (human) (UniProt P47871). The assay is described as follows: mAb binding ELISA on coated GCGR lipoparticles, mAb 1 µg/ml.
The target in assay [4] is T1, Nt-GCGR-hFc. The assay is described as follows: flow cytometry on HEK293E-GCGR cells with competition by soluble Nt-domain.
Assay [5] has as its target glucagon receptor (GCGR), full length (human) (UniProt P47871). The assay is described as follows: mAb binding ELISA, lipoparticles coated at 10 U/well, mAb 1 µg/ml, A450 [upper chart].
Assay [6] shares this target. Nature of the assay: flow cytometry on transfected HEK293E cells, 1 µg/ml, PE mean; second bar with excess Nt-GCGR.
In assay [7] the target is T1, Nt-GCGR-hFc. The assay is described as follows: ELISA with a titration of biotin-Nt-GCGR (x axis) against the mAbs, OD620.
The target in a further assay is T2, hNav1.7-loopC3-llama Fc (human).
T2 construct: whole entry: loop C3, linker, llama Fc; also called hNav1.7-loopC3-llfc
T2 chain: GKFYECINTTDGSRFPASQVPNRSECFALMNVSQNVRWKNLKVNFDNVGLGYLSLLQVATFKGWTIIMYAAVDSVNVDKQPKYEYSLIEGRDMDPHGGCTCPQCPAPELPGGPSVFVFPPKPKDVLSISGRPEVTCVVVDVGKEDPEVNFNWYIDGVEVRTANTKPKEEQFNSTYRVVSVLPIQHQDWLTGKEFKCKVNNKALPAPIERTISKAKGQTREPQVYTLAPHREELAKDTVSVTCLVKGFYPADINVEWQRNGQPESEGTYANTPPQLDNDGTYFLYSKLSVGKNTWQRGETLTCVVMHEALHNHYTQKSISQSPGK
The assay is described as follows: binding ELISA on coated loop-llama Fc chimera (20 ng/well), OD620. The procedure:
For all DNA-immunization derived mAbs the binding affinity for the various hNav1.7-loop-llama Fc chimeras was tested in a binding ELISA. Therefore, a Maxisorp plate (Nunc) was coated with 20 ng/well of hNav1.7-loopA3-llama Fc, hNav1.7-loopB1-C1-D1-llama Fc or hNav1.7-loopC3-llama Fc. Remainder of the ELISA setup is as described above. […] Only at very high concentration minor cross-reactivity is observed for some clones.

For assay [8], the target named is glucagon receptor (GCGR), full length (human) (UniProt P47871). The assay is described as follows: FACS on GCGR cells in competition with Nt-GCGR-Fc.
The target is the same in assay [9]. Nature of the assay: flow cytometry on CHO cells overexpressing GCGR, PE-mean [panel Binding mAb 6A5].
Assay [10] has the same target. The assay is described as follows: flow cytometry on HEK293E-GCGR cells, mAb pre-incubated with 20-fold excess of Nt-domain.
For assay [11] the target is unchanged. Nature of the assay: flow cytometry on CHO-GCGR cells.
Assay [12] has the same target. The assay is described as follows: flow cytometry on CHO cells overexpressing GCGR, PE-mean [panel Binding mAb 6A1].
Assay [13] shares this target. The assay is described as follows: mAb binding ELISA, lipoparticles coated at 10 U/well, mAb 1 µg/ml, A450 [lower chart].

Results are given in words; binding and its absence hold for the method and conditions named. Some binding calls cover weakened binding; strength is not graded here.

B1: mAb 6B3 (antibody, IgG1, V domains shown)
VH: QLQVVESGGGLVQPGGSLRLSCAASGFTFSTYVMSWVRQAPGKGLEWVSGINSGGGSTSYADSVKGRFTISRDNAKNTLYLQMNSLKPEDTAVYYCAKVGDGSAWYYYYGMDYWGQGTQVTVSS
VL: SSALTQPSAVSVSLGQTARITCQGGNLDGYYHAWYQQKPGQAPVQVIFGNNNRPSGIPERFSGSSSGGTTTLTISGAQAEDEADYYCQSYENSGYNIVFGGGTHLTVLG
B1: the binding entry (in assay [1]; with Nt-GCGR-hFc [2]; in assay [3]; with Nt-GCGR-hFc [4]; in assay [5]; in assay [6]) was “binds” throughout. In the assay with Nt-GCGR-hFc [7], the binding result is “binds”.

B2: 9G6 (antibody, human IgG1, V domains shown)
VH: EVQLVQPGAELTKPGASVKVSCNTSGYTFTGYYIDWVRQVPGEGLEWMGRIDPEDGDTKYAQKFQGRVTITADTSTTTAYMELSSLRSEDTAVYYCSLGVDYWGQGTQVTVSS
VL: ATMLTQSPGSLSVVPGESASISCKTSQSLVHSDGKTYLYWLLQKPGQSPQRLIYQVSNRDSGVPDRFTGSGSGTDFTLKISGVKAEDAGVYYCAQTTYDPVTFGQGTKVELK
For the molecule B2, in the assay with hNav1.7-loopC3-llama Fc, the binding result is recorded as “no binding (tested: about 66 nM)”.

B3: 9C3 (antibody, V domains shown)
VH: EVQLVQPGAELRNPGTSVKVSCKTSGYYFTSSDIQWVRQAPAQGLEWMGRIDPEDGATKYAPKFQGRVTFTADTFTRTAYVELSNLRSDDTAVYYCMTAGGEYWGKGTLVTVSS
VL: QPVLNQPSALSVSLGQTARITCQGGDFRNYYNNWYQQKPGQAPVLVIYEDSERPSGIPERFSGSSSGDTVILTVSRVQADDEADYYCQSSDSTDNAVFGGGTHLTVL
notes: chimeric llama-human, human IgG1 constant domains
Take B3: the binding result with hNav1.7-loopC3-llama Fc was “no binding (tested: about 66 nM)”.

B4: mAb 9C8 (GCGR) (antibody, V domains shown)
VH: QVQLVESGGGLVQPGGSLRLSCAASGFTFSSNAMSWVRQAPGKGLEWVSAISASGATTAYADSVRGRFTISRDNAKNTLYLQMNSLKPDDTAVYYCAKSEGATWYYAYWGQGTQVTVSS
VL: QPVLNQPSALSVTLGQTAKITCQGGSLGSSYAHWYQQKPGQAPVLVIYADNRRPSGTPERFSGSNSGNTATLTISGAQAEDEADYYCQVWDSSANAVFGGGTHLTVLG
On to B4, for which the binding result in [8] and in assay [6] was “binds” throughout.

B5: 9A1 (antibody, V domains shown)
VH: EVQLVQPGAELRNPGASVKVSCKASGDTFTDYYIHWVRQAPGQGLEWMGRIDPEDGGTKYTQKFQGRVTFTADTSTSTVYLELDSLRSEDTAVYYCVGDMDYWGKGTLVTVSS
VL: QTVVTQEPSLSVSPGGTVTLTCGLSSGSVTFGNYPSWYQQTPGQAPRTLIYTTNSRHSGVPSRFSGSISGNKATLTISGAQPEDEADFYCALSRVSGTYGTVFGGGTHLTVL
notes: as for B3
Regarding B5, the binding entry with hNav1.7-loopC3-llama Fc is recorded as “no binding (tested: about 66 nM)”.

B6: 9C12 (antibody, V domains shown)
VH: EVQLVQPGAEVRRPGAAVKVSCKASGFALISSYIDWVRQAPGQGLEWMGRIDPEDGGTSYAQKFQGRVTVTVDTATSTVYVELSSLRSDDTGVYFCMVGDSGYWGQGTQVTVSS
VL: ATMLTQSPASLSVVPGESASISCKASQSLVHSDGKTYLYWLLQKPGQSPQRLIYQVSNRGSGVPDRFTGSGSGTDFTLKISGVKAEDAGVYYCAQHTYYPPSFGSGTRLEIK
notes: as for B3
In the case of B6, the binding result with hNav1.7-loopC3-llama Fc is recorded as “no binding (tested: about 66 nM)”.

B7: 9F10 (antibody, human IgG1, V domains shown)
VH: EVQLVQPGAEVRRPGAAVKVSCKASGFALISSYIDWVRQAPGQGLEWMGRIDPEDGGTSYAQKFQGRVTVTVDTATSTVYVELSSLRSDDTGVYFCMVGDSGYWGQGTQVTVSS
VL: ATMLTQSPGSLSVGPGESASISCKAGQSLTHPNGKTYLSWLLQKPGQSPRRLIYETSNRDPGVPDRFTGSGSGTDFTLRIVGVTVEDAGVYYCAQTTYFPIAFGQGTKVELK
As to B7, the binding result with hNav1.7-loopC3-llama Fc is “no binding (tested: about 66 nM)”.

B8: mAb 6A5 (antibody, IgG1, V domains shown)
VH: EVQLQESGGGSVQPGGSLRLSCAASGFTFSANAMTWVRQAPGKGLEWVSAISGTGASTSYADSVKGRFTVSRDNAKNTLYLQVNNLKPEDTAVYRCAKLGGDTWYMEYWAKGTLVTVSS
VL: SYELTQSPSVSVALRQTAKITCGGDNIGSKYVNWYQQKPSQTPVLVIYKDSNRPSGIPERFSGSNSGNTAALTISGAQAEDEADYYCQVWDGSAAVFGGGTHLSVLG
As for B8, the binding result in assay [3], in assay [9], in [10], in assay [5] and in [6] was “binds” in each case.

B9: mAb 9A4 (GCGR) (antibody, V domains shown)
VH: QVQLVESGGGLVQPGGSLRLSCAASGFTFSSNAMSWVRQAPGKGLEWVSAISASGATTAYADSVRGRFTISRDNAKNTLYLQMNSLKPDDTAVYYCAKSEGATWYYAYWGQGTQVTVSS
VL: SYELTQSPSVSVALRQAAKITCGGDNIASKYVNWYQQKPGQAPVLVIYKDSSRPSGIPERFSGSNSGNTATLTVSGAQAEDEADYYCQVWDNSAAVFGGGTHLTVLG
Turning to B9, the binding result in [8] and in assay [6] was “binds” throughout.

B10: mAb 6A1 (antibody, IgG1, V domains shown)
VH: EVQLVESGGGLVQPGGSLRLSCAASGFTFSRNAMTWVRQAPGKGLEWVSAISSTGNSITEADSVKGRFTISRDNAKNMLYLQMNSLKPEDTAVYYCAKLGGDTWYMEYWGQGTQVTVSS
VL: SYELTQSPSMSVALRQTAKITCGGNNIGSKSAQWYQQKPGQAPVLVIYADNRRPSGIPERFSGSNSGNTATLTISGAQAEDEADYYCQVWDSSANAVFGRGTHLTVLG
Take B10: the binding result in [11], in assay [3], in [12], in assay [5] and in assay [6] was “binds” throughout.

B11: mAb 6B7 (antibody, IgG1, V domains shown)
VH: QLQLVESGGGLVQPGGSLRLSCAASGFTFSSNAMTWVRQAPGKGLEWVSAISSTGNSITEADSVKGRFTISRDNAKNMLYLQMNSLKPEDTAVYYCAKLGGDTWYMEYWGQGTQVTVSS
VL: SSALTQPSAVSVSLGQTARITCQGDNFGSIDPHWYQQKPGQDPVVVIYQYNNRPSGIPERFSGLKSGNTATLIISGAQAEDEADYYCQLWDSRAKAVFGGGTHLTVLG
With B11, the binding entry in assay [3] and in [13] was “binds” in each case.

B12: mAb 6D8 (antibody, IgG1, V domains shown)
VH: QLQLVESGGGLVQPGGSLRLSCAASGFTFSSNAMTWVRQAPGKGLEWVSAISSTGNSITEADSVKGRFTISRDNAKNMLYLQMNSLKPEDTAVYYCAKLGGDTWYMEYWGQGTQVTVSS
VL: SYELTQSPSVSVALRQTAKITCGGNGIGSKIVHWYQQKPGQAPVLVIYADVRRPSEIPERFSGSNSGDTATLTVSGAQAEDEADYYCQVWDSSANAAVFGGGTHLTVLG
For the molecule B12, the binding result in assay [3] and in assay [13] was “binds” each time.
